Results are given in words; binding and its absence hold for the method and conditions named. Binding seen in cells or lysates may run through a third protein. A yes stands for co-enrichment or nearness to the bait. Other partners may have been found. Sequences can lack the tags named with a protein.
Tests used:
[1] = target: T1, PSKH1 with C-terminal 3C protease-cleavable FLAG tag (human) (UniProt P11801); assay: affinity purification with mass spectrometry; FLAG-IP of PSKH1 with C-terminal 3C-cleavable FLAG from HEK293T lysates on anti-FLAG resin, elution with 3C protease, trypsin, mass spectrometry
T1 sequence: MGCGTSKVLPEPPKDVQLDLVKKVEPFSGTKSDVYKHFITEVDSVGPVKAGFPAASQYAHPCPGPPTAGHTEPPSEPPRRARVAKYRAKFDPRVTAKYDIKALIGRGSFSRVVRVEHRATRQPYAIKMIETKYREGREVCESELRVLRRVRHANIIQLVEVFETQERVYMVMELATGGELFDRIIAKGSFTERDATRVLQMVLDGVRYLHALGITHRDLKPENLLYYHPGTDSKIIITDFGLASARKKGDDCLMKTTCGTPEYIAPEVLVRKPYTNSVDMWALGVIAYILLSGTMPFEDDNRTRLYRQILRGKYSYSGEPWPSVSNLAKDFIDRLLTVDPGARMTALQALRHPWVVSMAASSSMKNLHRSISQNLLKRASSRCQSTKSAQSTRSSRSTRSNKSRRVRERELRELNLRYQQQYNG

Protein sequences, listed by entry. Tags and fused reporters are not part of them. Residues count along the entry.
UniProt O43852, residues 20-315: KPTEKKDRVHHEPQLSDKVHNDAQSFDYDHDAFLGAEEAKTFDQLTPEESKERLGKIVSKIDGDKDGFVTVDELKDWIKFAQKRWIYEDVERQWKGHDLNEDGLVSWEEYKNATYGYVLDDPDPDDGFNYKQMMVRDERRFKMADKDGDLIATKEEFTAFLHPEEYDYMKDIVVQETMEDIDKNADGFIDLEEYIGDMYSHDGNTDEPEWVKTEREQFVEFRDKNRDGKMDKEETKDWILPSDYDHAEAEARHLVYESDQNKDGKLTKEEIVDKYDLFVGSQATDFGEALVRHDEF
UniProt A6NIH7: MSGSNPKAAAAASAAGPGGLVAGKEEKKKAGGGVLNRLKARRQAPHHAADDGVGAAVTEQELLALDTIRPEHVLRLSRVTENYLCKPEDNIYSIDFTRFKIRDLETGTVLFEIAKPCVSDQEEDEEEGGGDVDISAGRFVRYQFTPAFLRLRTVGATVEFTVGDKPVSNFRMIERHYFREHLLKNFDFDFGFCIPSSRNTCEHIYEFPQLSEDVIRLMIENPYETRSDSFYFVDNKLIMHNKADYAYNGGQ

[2] = target: T2, PSKH1 with C-terminal FLAG tag and TurboID fusion (human) (UniProt P11801); assay: proximity labelling; TurboID: PSKH1-FLAG-TurboID induced with doxycycline (100 ng/mL) overnight in HEL cells, biotin 500 uM for 10 min, Streptavidin capture, trypsin, mass spectrometry; against uninduced cells; parallel experiments with ionomycin
T2 sequence: T1 sequence

| binding [1] | binding [2] | Substance |
| --- | --- | --- |
| binds | – | Calumenin (from UniProt O43852 20-315) |
| binds | – | HSP90 (human (endogenous in HEK293T)) |
| – | binds | UNC119B, endogenous (from UniProt A6NIH7 1-251) |

Reference: paper PMC11873932
